Reference: patent US20030206886A1 (UNIVERSITY OF MEDICINE AND DENTISTRY OF NEW JERSEY, published 2003)
No constants are given. Whether binding was seen depends on the method and setting. Some binding calls cover weakened binding; strength is not graded here. For some assays here: Tags and fused reporters may be left off the sequences shown.

Chains of the proteins cited; added tags and fusions are not shown. Residues count along the entry.
UniProt P22301, residues 19-178: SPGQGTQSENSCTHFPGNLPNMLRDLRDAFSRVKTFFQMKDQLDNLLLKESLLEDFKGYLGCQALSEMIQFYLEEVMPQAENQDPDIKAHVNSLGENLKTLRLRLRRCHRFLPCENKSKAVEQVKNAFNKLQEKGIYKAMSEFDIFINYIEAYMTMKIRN

What was measured:
human IL-10 (human) [1] = molecular target: human IL-10 (human) (UniProt P22301); assay: ELISA inhibition with concentrated supernatant, FIG. 7
human IL-10 (human) [2] = molecular target: human IL-10 (human) (UniProt P22301); assay: pre-incubation with hIL-10 before Ba8.1 proliferation assay, FIG. 6
human IL-10 (human) [3] = molecular target: human IL-10 (human) (UniProt P22301); assay: ELISA inhibition, supernatant pre-incubated with 250 pg cytokine, FIG. 7
human IL-10 (human) [4] = molecular target: human IL-10 (human) (UniProt P22301); assay: Ba8.1 proliferation assay FIG. 6; ELISA inhibition FIG. 7 ('specifically interferes with IL-10 activity in ELISA')
human IL-10 (human) [5] = molecular target: human IL-10 (human) (UniProt P22301); assay: Ba8.1 proliferation assay after pre-incubation, FIG. 1 bottom
human IL-10 (human) [6] = molecular target: human IL-10 (human) (UniProt P22301); assay: bead depletion assay (Ni-NTA-Agarose), filtrate assayed by ELISA
human IL-10 (human) [7] = molecular target: human IL-10 (human) (UniProt P22301); assay: bead depletion assay, FIG. 2 (also FIG. 1 bottom: 'bind human IL-10')
human IL-10 (human) [8] = molecular target: human IL-10 (human) (UniProt P22301); assay: bead depletion assay (Ni-NTA agarose), unbound hIL-10 by ELISA, FIG. 2

Measured: binding

human IL-10 receptor IgA immunoadhesin (from UniProt Q13651 22-235; P01876 103-353) (Fc fusion)
binds: human IL-10 (human) [1] | human IL-10 (human) [2] | human IL-10 (human) [3] | human IL-10 (human) [4]

B1: human IL-10 receptor extracellular domain (human IL-10R-6xHis) (receptor)
chain: HGTELPSPPSVWFEAEFFHHILHWTPIPNQSESTCYEVALLRYGIESWNSISNCSQTLSYDLTAVTLDLYHSNGYRARVRAVDGSRHSNWTVTNTRFSVDEVTLTVGSVNLEIHNGFILGKIQLPRPKMAPANDTYESIFSHFREYEIAIRKVPGNFTFTHKKVKHENFSLLTSGEVGEFCVQVKPSVASRSNKGMWSKEECISLTRQYFTVTNHHHHHH
binds: human IL-10 (human) [5] | human IL-10 (human) [6] | human IL-10 (human) [7] | human IL-10 (human) [8]
